Publication PMC11481571
No constants are given. Whether binding was seen depends on the method and setting. Binding seen in cells or lysates may run through a third protein. A result given as binding can be weak or reduced; the word gives no strength.

Biological target: T1, porcine Gasdermin A (pGSDMA), full-length recombinant protein (pig) (UniProt F1RXA6)
T1 sequence: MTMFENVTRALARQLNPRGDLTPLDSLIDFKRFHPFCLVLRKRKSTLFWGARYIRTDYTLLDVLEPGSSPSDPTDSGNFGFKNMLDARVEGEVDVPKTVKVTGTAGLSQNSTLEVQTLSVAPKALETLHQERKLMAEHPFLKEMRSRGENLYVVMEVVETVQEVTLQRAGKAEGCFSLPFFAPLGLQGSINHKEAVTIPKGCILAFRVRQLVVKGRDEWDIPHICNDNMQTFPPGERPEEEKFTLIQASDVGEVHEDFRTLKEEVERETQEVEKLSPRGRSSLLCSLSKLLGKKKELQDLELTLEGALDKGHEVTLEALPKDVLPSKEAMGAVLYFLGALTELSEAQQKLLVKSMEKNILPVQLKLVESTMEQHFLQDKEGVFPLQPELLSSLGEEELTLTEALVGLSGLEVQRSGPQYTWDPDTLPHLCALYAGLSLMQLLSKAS
Assay: co-IP; full-length pGSDMA and WT 3C recombinant proteins mixed in vitro (cell-free system); immunoprecipitated with rabbit anti-HA monoclonal antibody; both purified

In the case of “Seneca Valley Virus (SVV) 3C protease, wild-type recombinant protein (enzyme)”, the binding is reported as “binds”.
